# Experimental data: the supplement of paper PMC7024190
# Some of the results follow. This data set is noisy: repeats of one test often differ as much as different tests do.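 Human embryonic kidney cells were transiently transfected with a plasmid bearing a Renilla luciferase gene under the HSV-TK promoter. This first-round screen tests roughly ten thousand compounds for ones that increase reporter output.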
# Tested on: HEK 293FT
# Assay: log relative Renilla luciferase luminescence (reporter expression vs reference, reference not stated) (log (base not stated)); higher = higher recombinant reporter expression
# Details: 10 µM; time after transfection 48 h
# Description: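 HEK 293FT cells transiently transfected with pRL-TK (Renilla luciferase) were treated with compounds at 10 uM and luminescence was read about 42 h later. Values are log relative Renilla luminescence (log base and reference not stated). Single-pass screen; 2080 natural products library.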
row,Compound,log
1,COc1cc2oc(-c3ccc(O)cc3)cc(=O)c2c(O)c1OC [Cirsimaritin],-1.03
2,"O=C1c2c(O)cc(O)cc2O[C@H](c2c(O)cccc2O)[C@H]1O [2',3,5,6',7-Pentahydroxyflavanone]",-0.193
3,COc1cc(/C=C/c2ccccc2)cc(OC(C)=O)c1 [(E)-3-Acetoxy-5-methoxystilbene],-0.279
4,CC(=O)O[C@H]1CC[C@]2(C)[C@H]3CC[C@@]4(C)[C@@H]5[C@@H](C)[C@H](C)CC[C@]5(C)CC[C@]4(C)C3=CC[C@H]2C1(C)C [Bauerenol acetate],0.134
5,O=C1C[C@@H](c2ccc(O)cc2)Oc2cc(O)cc(O)c21 [Naringenin],0.103
6,C[C@@H]1[C@H]2[C@H](O[C@@H]3O[C@H](CO)[C@@H](O)[C@H](O)[C@H]3O)OC=C(C(=O)O)[C@H]2C[C@@H]1O [Loganic acid],0.0322
7,C=C1CC[C@@H]2[C@](C)(CCC[C@]2(C)C(=O)O)[C@H]1CC/C(C)=C/COC(C)=O [Acetylisocupressic acid],0.0251
8,COC(/C=C/c1ccccc1)=C1C(=O)C(OC)=C(OC)C1=O [Methyllinderone],-0.181
9,C=C(C)C1CCC2C(=CCC3(C)C(C(C)CCC=C(C)C(=O)O)CCC23C)C1(C)CCC(=O)O (stereo not given) [Kadsuric acid],0.0352
10,COc1cc2ccc(=O)oc2cc1O [Scopoletin],-0.0863
11,COc1ccoc1 [3-Methoxyfuran],-0.0445
12,O=C1C[C@@H](c2ccccc2)Oc2cc(O)cc(O)c21 [Pinocembrin],-0.279
13,C[C@@H]1O[C@@H](O[C@@H]2[C@@H](O)[C@H](OCCc3ccc(O)c(O)c3)O[C@H](CO)[C@H]2OC(=O)/C=C/c2ccc(O)c(O)c2)[C@H](O)[C@H](O)[C@H]1O [Acteoside],-0.203
14,C[C@@H]1O[C@@H](Oc2cc(O)c3c(=O)c(O[C@@H]4O[C@@H](C)[C@H](O)[C@@H](O)[C@H]4O)c(-c4ccc(O)cc4)oc3c2)[C@H](O)[C@H](O)[C@H]1O [Kaempferitrin],9.38e-05
15,"C=C(CC[C@@H](C)[C@H]1[C@@H](O)C[C@H]2[C@@H]3[C@H](O)C=C4C[C@@H](O)CC[C@]4(C)[C@H]3CC[C@]12C)C(C)C [Ergosta-5,24(28)-diene-3,7,16-triol]",-0.0563
16,CC(=O)CC[C@@H]1[C@@]2(C)CO[C@]1(C)C[C@@H](O[C@@H]1O[C@H](CO)[C@@H](O)[C@H](O)[C@H]1O)C2 [Ascleposide E],-0.635
17,C[C@H](CC[C@@H](O)C(C)(C)O)[C@H]1CC[C@@]2(C)C3=CC[C@H]4C(C)(C)C(=O)CC[C@]4(C)C3=CC[C@]12C [Ganodermanondiol],0.143
18,O=C(OC[C@H]1O[C@@H](O[C@@H]2OC=C[C@H]3[C@H](OC(=O)c4ccc(O)cc4)[C@@H]4O[C@]4(CO)[C@@H]23)[C@H](O)[C@@H](O)[C@@H]1O)c1ccc(O)cc1 [6'-O-p-Hydroxybenzoylcatalposide],-0.273
19,Cc1cc(O)c2c(c1)C(=O)c1cccc(O[C@@H]3O[C@H](CO)[C@@H](O)[C@H](O)[C@H]3O)c1C2=O [Chrysophanol 8-O-glucoside],-0.119
20,CC(=O)OC1CCC2(C)C(CCC3(C)C2CC=C2C4C(C)C(C)CCC4(C(=O)O)CCC23C)C1(C)C (stereo not given) [Acetylursolic acid],0.0581

row,Compound,log
1,"C[C@@]12CCC[C@@](C)(C(=O)O)[C@H]1CC[C@@]13C[C@@H](CC[C@H]12)[C@@](O)(CO)C3 [ent-16beta,17-Dihydroxy-19-kauranoic acid]",0.0279
2,C[N+](C)(C)C(Cc1ccccc1)C(=O)[O-] (stereo not given) [Phenylalanine betaine],0.146
3,CC(=O)N[C@@H](C)[C@H]1CC[C@@]2(C)[C@@H]3C=C[C@H]4C(C)(C)[C@@H](N(C)C)CC[C@@]45C[C@@]35CC[C@]12C [Buxbodine D],0.012
4,O=C1c2cccc(O)c2C(=O)c2c(O)cccc21 [Dantron],-0.273
5,"CC(=O)Oc1ccc([C@@H]2CC(=O)c3c(O)cc(OC(C)=O)cc3O2)cc1 [Naringenin-4',7-diacetate]",0.0391
6,CC(C)(O)[C@@H](COc1c2occc2cc2ccc(=O)oc12)OC(C)(C)[C@H](O)COc1c2occc2cc2ccc(=O)oc12 [Rivulobirin E],0.196
7,"CC(=O)Oc1cc(OC(C)=O)c2c(=O)cc(-c3ccccc3)oc2c1 [5,7-Diacetoxyflavone]",0.0322
8,COc1cnc(C2CCCc3c4[nH]c5c(O)cccc5c4c(OC)c[n+]32)c2[nH]c3c(O)cccc3c12 (stereo not given) [Picrasidine T],0.085
9,"CC[C@H](CC[C@@H](C)[C@H]1CC[C@H]2C3=C(CC[C@]12C)[C@@]1(C)CCC(O)CC1=CC3)C(C)C (stereo not given in full) [Stigmasta-5,8-dien-3-ol]",-0.331
10,COC(=O)C1=CC[C@@]23CC[C@@H]([C@@](C)(/C=C/C=C(\C)C(=O)OC)OC2=O)[C@@]3(OC(C)=O)CC1 [Methylpseudolarate B],-0.48
11,CC(=O)c1ccc2c(c1)C=CC(C)(C)O2 [Demethoxyencecalin],0.0788
12,CCOC(=O)c1cc(O)c(O)c(O)c1 [Ethyl gallate],0.0016
13,COc1ccc2ccc(=O)oc2c1/C=C/C(C)(C)O [Murraol],0.0222
14,CC[C@H](CC[C@@H](C)[C@H]1CC[C@H]2[C@@H]3C[C@H](O)C4=CC(=O)CC[C@]4(C)[C@H]3CC[C@]12C)C(C)C [6-Hydroxystigmast-4-en-3-one],-0.0544
15,"CC[C@H](CC[C@@H](C)[C@H]1CC[C@H]2[C@@H]3CC(=O)[C@H]4CC(=O)CC[C@]4(C)[C@H]3CC[C@]12C)C(C)C [Stigmastane-3,6-dione]",0.0307
16,"COc1ccc(C2Oc3cc(OC)cc(OC)c3C(=O)C2O)cc1 (stereo not given) [3-Hydroxy-4',5,7-trimethoxyflavanone]",-0.405
17,COc1ccc(CCO[C@@H]2O[C@H](COC(C)=O)[C@@H](OC(=O)/C=C/c3ccc(OC(C)=O)c(OC(C)=O)c3)[C@H](O[C@@H]3O[C@@H](C)[C@H](OC(C)=O)[C@@H](OC(C)=O)[C@H]3OC(C)=O)[C@H]2OC(C)=O)cc1OC [Brachynoside heptaacetate],0.0724
18,COC[C@@H](Cc1ccc(OC)c(OC)c1)[C@@H](COC)Cc1cc(OC)c2c(c1)OCO2 [Niranthin],0.0164
19,OC[C@@H](O)[C@@H](O)[C@@H](O)[C@@H](O)CO [Allitol],0.771
20,COc1ccc(-c2cc(=O)c3c(OC(C)=O)c(C)c(OC)c(C)c3o2)cc1 [Eucalyptin acetate],-0.309

# Among those listed so far, 2 contain a furan ring, fused or not:
row,Compound,log
11,COc1ccoc1 [3-Methoxyfuran],-0.0445
6,CC(C)(O)[C@@H](COc1c2occc2cc2ccc(=O)oc12)OC(C)(C)[C@H](O)COc1c2occc2cc2ccc(=O)oc12 [Rivulobirin E],0.196

# Some of the entries above, reformatted.
row	Compound	log
5	CC(=O)Oc1ccc([C@@H]2CC(=O)c3c(O)cc(OC(C)=O)cc3O2)cc1 [Naringenin-4',7-diacetate]	0.0391
6	CC(C)(O)[C@@H](COc1c2occc2cc2ccc(=O)oc12)OC(C)(C)[C@H](O)COc1c2occc2cc2ccc(=O)oc12 [Rivulobirin E]	0.196
